The values below come from the supplement of paper PMC7877785.

This data set is described as follows: self-splicing fitness, log relative to wild type (ln ratio); higher = more splicing; Tetrahymena group I intron in knt gene, E. coli kanamycin selection, DiMSum; sequences stand for … in CUCUCU…GGAGGGAAAAGUUAUCAGGCAUGCACCUGGUAGCUAGUCUUUAAACCAAUAGAUUGCAUCGGUUUAAAAGGCAAGACCGUCAAAUUGCGGGAAAGGGGUCAACAGCCGUUCAGUACCAAGUCUCAGGGGAAACUUUGAGAUGGCCUUGCAAAGGGUAUGGUAAUAAGCUGACGGACAUGGUCCUAACCACGCAGCCAAGUCCUAAGUCAACAGAUCUUCUGUUGAUAUGGAUGCAGUUCACAGACUAAAUGUCGGUCGGGGAAGAUGUAUUCUUCUCAUAAGAUAUAGUCGGACCUCUCCUUAAUGGGAGCUAGCGGAUGAAGUGAUGCAACACUGGAGCCGCUGGGAACUAAUUUGUAUGCGAAAGUAUAUUGAUUAGUUUUGGAGUACUCGUGGUCG
The method in brief:
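Colonies from six replicate transformations of E. coli BL21(DE3) were pooled and amplicon-sequenced on an Illumina HiSeq 2500. The library placed an intron with all eight P1ex-region nucleotides randomised inside the knt kanamycin-resistance gene on pET-22b(+), and cells grew overnight at 37°C or 30°C on LB agar with or without 25 μg/mL kanamycin (plus 100 μg/mL carbenicillin, 50 μM IPTG, 0.2% rhamnose). Fitness is the DiMSum error-weighted combination of wild-type-normalised replicate fold changes, kanamycin versus none.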

± gives the uncertainty stated by the source. Many of these values have a large error.

Regarding GGGGAGCAAUAUUACGAGCU, the “self-splicing fitness (ln)” value is, setting by setting: (30 °C) -3.07 ± 0.68; (37 °C) -2.54 ± 1.1.

As to CGUGAGCAAUAUUACGCGGA, the “self-splicing fitness (ln)” value (30 °C) is -4.06 ± 0.74.

For the sequence CUGCAGCAAUAUUACGCAAC, the “self-splicing fitness (ln)” value is, setting by setting: (30 °C) -5.2 ± 1; (37 °C) -4.08 ± 1.

Regarding UUUUAGCAAUAUUACGCGGC, the “self-splicing fitness (ln)” value (30 °C) was -4.26 ± 1.

Regarding CAGGAGCAAUAUUACGGCCA, the “self-splicing fitness (ln)” value was -4.26 ± 1 (30 °C) and 0.122 ± 0.3 (37 °C).

In the case of UUCUAGCAAUAUUACGUCGC, the “self-splicing fitness (ln)” value (37 °C) was -3.11 ± 0.61.

As for AUAUAGCAAUAUUACGGAGG, where the note is “37 °C”, the “self-splicing fitness (ln)” value was -3.21 ± 0.6.

With UCCCAGCAAUAUUACGACAC, the “self-splicing fitness (ln)” value is -4.98 ± 0.71 (30 °C) and -1.39 ± 0.55 (37 °C).

On to UCGGAGCAAUAUUACGGUCU, for which, where the note is “37 °C”, the “self-splicing fitness (ln)” value is -2.11 ± 0.55.

CUUAAGCAAUAUUACGGACC: under “30 °C”, the “self-splicing fitness (ln)” value is -3.83 ± 1.

In the case of UGCCAGCAAUAUUACGUCAC, the “self-splicing fitness (ln)” value (30 °C) is -4.08 ± 0.6.

AGAUAGCAAUAUUACGUUAC: the “self-splicing fitness (ln)” value (37 °C) was -2.97 ± 0.6.

Regarding GACGAGCAAUAUUACGAUAG, the “self-splicing fitness (ln)” value (30 °C) was -5.2 ± 0.51.

CAGGAGCAAUAUUACGUCGU: the “self-splicing fitness (ln)” value (30 °C) is -4.55 ± 0.73.

For the sequence CCGUAGCAAUAUUACGGAGC, the “self-splicing fitness (ln)” value is, setting by setting: (30 °C) -2.71 ± 0.56; (37 °C) -2 ± 0.57.

As for CCAUAGCAAUAUUACGCGCC, the “self-splicing fitness (ln)” value is -2.89 ± 0.52 (30 °C) and -2.3 ± 0.77 (37 °C).

For UCUUAGCAAUAUUACGCGGA, the “self-splicing fitness (ln)” value (30 °C) was -2.79 ± 0.62.

As for CCGGAGCAAUAUUACGCGAC, the “self-splicing fitness (ln)” value (30 °C) was -1.38 ± 0.73.

Consider AUGGAGCAAUAUUACGUCAC, for which the “self-splicing fitness (ln)” value (37 °C) was -2.05 ± 0.51.

With UUGUAGCAAUAUUACGACUC, the “self-splicing fitness (ln)” value (30 °C) was 0.426 ± 0.51 and the “self-splicing fitness (ln)” value (37 °C) came to 0.363 ± 0.58.

GUGAAGCAAUAUUACGAGUU: the “self-splicing fitness (ln)” value (30 °C) is -2.5 ± 0.12 and the “self-splicing fitness (ln)” value (37 °C) is -1.14 ± 0.15.

With CAGAAGCAAUAUUACGAGGC, the “self-splicing fitness (ln)” value (30 °C) is -4.65 ± 0.51.

Turning to GGAGAGCAAUAUUACGAGUU, the “self-splicing fitness (ln)” value (37 °C) is -4.34 ± 0.51.

For the sequence UAUGAGCAAUAUUACGCCCC, where the note is “30 °C”, the “self-splicing fitness (ln)” value is -2.79 ± 1.2.

As to UGACAGCAAUAUUACGAGAA, the “self-splicing fitness (ln)” value (30 °C) was -3.25 ± 0.54.

Consider CUUUAGCAAUAUUACGCCAA, for which, for the setting “37 °C”, the “self-splicing fitness (ln)” value was -1.13 ± 0.71.

Regarding GGGGAGCAAUAUUACGGGCU, the “self-splicing fitness (ln)” value is -2.37 ± 0.56 (30 °C) and -1.74 ± 0.59 (37 °C).

Regarding GGAGAGCAAUAUUACGCAAU, the “self-splicing fitness (ln)” value (30 °C) is -3.02 ± 0.2 and the “self-splicing fitness (ln)” value (37 °C) is -2.55 ± 0.31.

As to GCGGAGCAAUAUUACGCAAU, the “self-splicing fitness (ln)” value (37 °C) is -2.2 ± 1.1.

As for GUGGAGCAAUAUUACGACUG, the “self-splicing fitness (ln)” value by setting is: (30 °C) -3.13 ± 0.74; (37 °C) -1.44 ± 0.69.

For the sequence CUUUAGCAAUAUUACGAAGC, the “self-splicing fitness (ln)” value runs as follows: (30 °C) -2.42 ± 0.51; (37 °C) -0.415 ± 0.79.

Take GCUGAGCAAUAUUACGACCC: the “self-splicing fitness (ln)” value (30 °C) was -2.75 ± 0.62.

For the sequence CUGCAGCAAUAUUACGCAGC, the “self-splicing fitness (ln)” value (37 °C) is -1.55 ± 0.66.

For UGGGAGCAAUAUUACGGAUC, the “self-splicing fitness (ln)” value (30 °C) was -5.23 ± 1 and the “self-splicing fitness (ln)” value (37 °C) is -3.37 ± 0.73.

Take AUCGAGCAAUAUUACGAGUC: the “self-splicing fitness (ln)” value reads like this: (30 °C) -4.23 ± 0.72; (37 °C) -2.98 ± 0.6.

AUCUAGCAAUAUUACGAAAA: the “self-splicing fitness (ln)” value (30 °C) is -2.17 ± 0.69.

AGUCAGCAAUAUUACGCUGC: the “self-splicing fitness (ln)” value (37 °C) was -1.22 ± 0.51.

Consider CUCUAGCAAUAUUACGGAUC, for which the “self-splicing fitness (ln)” value is, setting by setting: (30 °C) -3.4 ± 0.21; (37 °C) -3.33 ± 0.33.

As for UAGUAGCAAUAUUACGCAUC, the “self-splicing fitness (ln)” value (37 °C) was -1.6 ± 0.73.

For CCAUAGCAAUAUUACGAUAA, the “self-splicing fitness (ln)” value (30 °C) was -4.43 ± 0.74.

On to GUCUAGCAAUAUUACGGCAG, for which, under “30 °C”, the “self-splicing fitness (ln)” value is -3.15 ± 0.61.

UAUGAGCAAUAUUACGCCAC: the “self-splicing fitness (ln)” value reads like this: (30 °C) -2.42 ± 0.82; (37 °C) -2.04 ± 0.56.

As to CCAGAGCAAUAUUACGCGCA, the “self-splicing fitness (ln)” value (37 °C) is -3.25 ± 0.6.

Regarding ACGCAGCAAUAUUACGCAGG, the “self-splicing fitness (ln)” value (30 °C) was -4.17 ± 0.6.

Turning to GUGGAGCAAUAUUACGCUAU, the “self-splicing fitness (ln)” value (30 °C) is -2.85 ± 0.25 and the “self-splicing fitness (ln)” value (37 °C) is -2.26 ± 0.5.

Take UGCGAGCAAUAUUACGGCAU: where the note is “37 °C”, the “self-splicing fitness (ln)” value was -2.77 ± 0.61.

Take CCUUAGCAAUAUUACGUCAA: the “self-splicing fitness (ln)” value (37 °C) was -3.79 ± 0.59.

For UUAUAGCAAUAUUACGCAGU, the “self-splicing fitness (ln)” value (30 °C) is -3.79 ± 0.73.

In the case of UCCAAGCAAUAUUACGCUGC, the “self-splicing fitness (ln)” value is -2.94 ± 0.21 (30 °C) and -2.61 ± 0.27 (37 °C).

On to AAGGAGCAAUAUUACGGGUG, for which the “self-splicing fitness (ln)” value (37 °C) is -0.677 ± 0.57.
